Here are results for five molecules from publication PMC5778466.

These are yes or no findings as the source states them, for the method shown. Some entries that bind do so weakly or less than the wild type. Sequences can lack the tags named with a protein.

Test [1] concerns the target T1, Clr3 fused to the GAL4 DNA binding domain (fission yeast) (UniProt P56523).
T1 sequence: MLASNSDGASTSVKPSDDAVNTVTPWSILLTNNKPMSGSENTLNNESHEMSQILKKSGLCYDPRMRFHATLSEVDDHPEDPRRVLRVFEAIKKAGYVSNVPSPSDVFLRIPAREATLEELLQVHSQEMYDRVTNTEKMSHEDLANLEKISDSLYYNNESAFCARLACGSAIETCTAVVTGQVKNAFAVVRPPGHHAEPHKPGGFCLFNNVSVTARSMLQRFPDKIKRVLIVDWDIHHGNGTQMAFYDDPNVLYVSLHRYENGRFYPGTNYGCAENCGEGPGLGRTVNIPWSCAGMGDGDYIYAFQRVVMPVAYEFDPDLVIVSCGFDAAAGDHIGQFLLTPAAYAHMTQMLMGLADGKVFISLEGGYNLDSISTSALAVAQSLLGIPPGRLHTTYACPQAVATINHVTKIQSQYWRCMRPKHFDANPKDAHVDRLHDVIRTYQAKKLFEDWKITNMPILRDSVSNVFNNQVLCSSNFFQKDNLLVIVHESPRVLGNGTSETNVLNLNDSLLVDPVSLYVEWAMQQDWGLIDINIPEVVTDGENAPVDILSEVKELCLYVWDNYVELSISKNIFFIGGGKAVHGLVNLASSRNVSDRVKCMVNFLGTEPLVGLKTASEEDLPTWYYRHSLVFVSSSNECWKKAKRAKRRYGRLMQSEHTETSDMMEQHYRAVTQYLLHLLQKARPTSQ
The test is described as follows: two-hybrid; Matchmaker Gold; Ccq1 truncations fused to the GAL4 activation domain, Ccq1 C-terminus fragments, Tpz1 or Clr3 fused to the GAL4 DNA binding domain; selection plate lacks adenine and histidine; 28°C, 2–3 days (Figures 4A, 5A).

Test [2] concerns the target T2, Est1 fused to the GAL4 DNA binding domain (fission yeast) (UniProt O74804).
T2 sequence: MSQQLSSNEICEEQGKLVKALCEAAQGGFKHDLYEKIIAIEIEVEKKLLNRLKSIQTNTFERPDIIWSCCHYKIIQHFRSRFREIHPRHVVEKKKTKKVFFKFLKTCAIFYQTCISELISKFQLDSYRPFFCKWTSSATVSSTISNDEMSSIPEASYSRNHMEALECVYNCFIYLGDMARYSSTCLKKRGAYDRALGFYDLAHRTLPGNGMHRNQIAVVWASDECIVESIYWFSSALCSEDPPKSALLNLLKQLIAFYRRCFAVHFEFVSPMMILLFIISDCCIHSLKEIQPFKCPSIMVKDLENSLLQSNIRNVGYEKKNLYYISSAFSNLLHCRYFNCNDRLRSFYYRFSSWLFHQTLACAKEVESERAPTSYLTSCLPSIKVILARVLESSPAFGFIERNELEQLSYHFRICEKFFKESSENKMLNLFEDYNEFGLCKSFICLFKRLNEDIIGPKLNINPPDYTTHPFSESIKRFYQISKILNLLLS
The experiment in a line: two-hybrid; Matchmaker Gold; Ccq1 truncations fused to the GAL4 activation domain, partners fused to the GAL4 DNA binding domain; budding yeast, plates at 28°C for 2–3 days; Supplementary Figure S2A, its selection plate not shown (lacking adenine and histidine, or lacking histidine with 1 mM 3-AT).

Test [3] deals with Ccq1(500–735), the C-terminal coiled-coil motifs region, as GAL4 fusion (fission yeast) (UniProt Q10432). The experiment in a line: two-hybrid; Matchmaker Gold; Ccq1 truncations fused to the GAL4 activation domain, Ccq1 C-terminus fragments, Tpz1 or Clr3 fused to the GAL4 DNA binding domain; selection plate lacks adenine and histidine; 28°C, 2–3 days (Figures 4A, 5A).

B1: Ccq1(1–441) fused to the GAL4 activation domain (domain or fragment, UniProt Q10432 1-441)
chain: MSEINDFTNSIIINESDTKYEVYSEVNSSNRWIAKEDCPSPLEDVWLLKLAGHKRKLEEPLSCMRNEEPASKQREIEKFLRTDLDHSENDFLTQEVDEFPSTQQLFPIPLQNDTAFDSSEESITKSSKSSFSVLDIGLPMSALQRKMMHRLVQYFAFCIDHFCTGPSDSRIQEKIRLFIQSAHNIAKHPSLYDTEVRNPSAAESTNSHVSLDASNFSSYAENSSKFLFLQELFKNLSPSYSKTFFLFISNQFLANTLTQWLKSQNIDAELWAEEDAKTSQHPAIWICVSKKAPSASHFLQSCPDLSATIFYDIEAYMSVTSSLPSIQSLVLRLIHLGSIEHAIKCFQSSYNASFLVNIVGVVATLSSSSEENSEASNLSTLFEKSGNFEEILGSESHSSITEKTRDIAKNVATWLKNGENFSSWPLPPLMDLASLSVAEPR
Turning to B1, the binding result in test [1] is “binds weakly”.

B2: full length Ccq1 fused to the GAL4 activation domain (protein, UniProt Q10432 1-735)
chain: MSEINDFTNSIIINESDTKYEVYSEVNSSNRWIAKEDCPSPLEDVWLLKLAGHKRKLEEPLSCMRNEEPASKQREIEKFLRTDLDHSENDFLTQEVDEFPSTQQLFPIPLQNDTAFDSSEESITKSSKSSFSVLDIGLPMSALQRKMMHRLVQYFAFCIDHFCTGPSDSRIQEKIRLFIQSAHNIAKHPSLYDTEVRNPSAAESTNSHVSLDASNFSSYAENSSKFLFLQELFKNLSPSYSKTFFLFISNQFLANTLTQWLKSQNIDAELWAEEDAKTSQHPAIWICVSKKAPSASHFLQSCPDLSATIFYDIEAYMSVTSSLPSIQSLVLRLIHLGSIEHAIKCFQSSYNASFLVNIVGVVATLSSSSEENSEASNLSTLFEKSGNFEEILGSESHSSITEKTRDIAKNVATWLKNGENFSSWPLPPLMDLASLSVAEPRDSQPSVSQVNDTFVKSSDSTFPSSQSMQSPSKLHSLTSNATDLLSSSSLKKNFFSQQEADEVELSNNYDLQGAAVQYLQRRLRMVEDELHEAINSKNVQQSRSEELEQQISKLTDNLQEYRNTVRELKLDLEKSKKKNEDLSKLEVEKVEEIANLKKELTHLAKQQEFGFKYVQEFSNEDLQGKLIEANEKNYKLTQLLKTQKEDADFITNQYQNASTFAAEQSKEVAKLQAECKRLQAINSKVMEEVKVYNDSRVEALLAKVSSLEETLKILEQKSLPKFTPHNQSPRIIDSN
For B2, the binding entry in test [2] is on record as “binds”.

B3: Ccq1(500–735), the C-terminal coiled-coil motifs region, as GAL4 fusion (domain or fragment, UniProt Q10432 500-735)
chain: ADEVELSNNYDLQGAAVQYLQRRLRMVEDELHEAINSKNVQQSRSEELEQQISKLTDNLQEYRNTVRELKLDLEKSKKKNEDLSKLEVEKVEEIANLKKELTHLAKQQEFGFKYVQEFSNEDLQGKLIEANEKNYKLTQLLKTQKEDADFITNQYQNASTFAAEQSKEVAKLQAECKRLQAINSKVMEEVKVYNDSRVEALLAKVSSLEETLKILEQKSLPKFTPHNQSPRIIDSN
For the molecule B3, the binding result in test [3] and in test [1] was “binds” throughout.

B4: Ccq1(63–441) fused to the GAL4 activation domain (domain or fragment, UniProt Q10432 63-441)
chain: CMRNEEPASKQREIEKFLRTDLDHSENDFLTQEVDEFPSTQQLFPIPLQNDTAFDSSEESITKSSKSSFSVLDIGLPMSALQRKMMHRLVQYFAFCIDHFCTGPSDSRIQEKIRLFIQSAHNIAKHPSLYDTEVRNPSAAESTNSHVSLDASNFSSYAENSSKFLFLQELFKNLSPSYSKTFFLFISNQFLANTLTQWLKSQNIDAELWAEEDAKTSQHPAIWICVSKKAPSASHFLQSCPDLSATIFYDIEAYMSVTSSLPSIQSLVLRLIHLGSIEHAIKCFQSSYNASFLVNIVGVVATLSSSSEENSEASNLSTLFEKSGNFEEILGSESHSSITEKTRDIAKNVATWLKNGENFSSWPLPPLMDLASLSVAEPR
Regarding B4, the binding entry in test [2] is “binds weakly”.

B5: Ccq1(131–441) fused to the GAL4 activation domain (domain or fragment, UniProt Q10432 131-441)
chain: FSVLDIGLPMSALQRKMMHRLVQYFAFCIDHFCTGPSDSRIQEKIRLFIQSAHNIAKHPSLYDTEVRNPSAAESTNSHVSLDASNFSSYAENSSKFLFLQELFKNLSPSYSKTFFLFISNQFLANTLTQWLKSQNIDAELWAEEDAKTSQHPAIWICVSKKAPSASHFLQSCPDLSATIFYDIEAYMSVTSSLPSIQSLVLRLIHLGSIEHAIKCFQSSYNASFLVNIVGVVATLSSSSEENSEASNLSTLFEKSGNFEEILGSESHSSITEKTRDIAKNVATWLKNGENFSSWPLPPLMDLASLSVAEPR
Regarding B5, the binding entry in test [2] is reported as “binds weakly”.
